PubChem BioAssay AID686937 – Drosophila RNAi Screening Center | 2013
Purpose: 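Genes in the fly needed for secretion of protein constitutively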 (primary screen). Cells: Drosophila S2 cells expressing secreted horseradish peroxidase. Reagent: long dsRNA against Drosophila genes. Time to read-out: about 5.5 days (5 days dsRNA, then 12 h reporter induction). Conditions: reporter expression induced after 5 days of dsRNA, read 12 h later; inducer not stated. Detection: 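After 5 days of dsRNA and 12 h of reporter induction, medium peroxidase read by chemiluminescence and scored as per-plate z-score; higher values mean more reporter released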. Direction: z-score: higher = more reporter secreted into medium.
The screen tested about 23,000 reagents; shown is an unselected part of those that have a named target and a result. 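Reduced-secretion tags in replicate 1 do not always agree with the z-scores; no criterion for assigning the tags was given.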 Not all columns of the deposit are shown. The record does not give: the amount of reagent.

Against numb (GeneID 34263) [DRSC03584], the entry reads z-score, replicate 1 = 0.41. DhpD (GeneID 40528) [DRSC12288] gave z-score, replicate 1 = 0.4. For Agps (GeneID 36669) [DRSC05984] the deposit lists z-score, replicate 1 = 0.19. With knock-down of CG9389 (GeneID 40347) [DRSC11857], the screen gave z-score, replicate 1 = 0.37. Against hbn (GeneID 47894) [DRSC04082] the deposit lists z-score, replicate 1 = -1.34. After knock-down of hbn (GeneID 47894) [DRSC04238], the record shows z-score, replicate 1 = -0.05.

For hbn (GeneID 47894) [DRSC04239], the values are z-score, replicate 1 = 0.13. Depletion of hbn (GeneID 47894) [DRSC22436] gave: z-score, replicate 1 = 0.15.

Reprinted from the entries so far, 2 entries:
DhpD (GeneID 40528) [DRSC12288] | z-score, replicate 1 = 0.4
Agps (GeneID 36669) [DRSC05984] | z-score, replicate 1 = 0.19

Further reagents:
For Tbc1d15-17 (GeneID 33184) [DRSC00313], the entry reads z-score, replicate 1 = 0.46. Theg (GeneID 42585) [DRSC16023] showed z-score, replicate 1 = 0.4. Against Ugt35D1 (GeneID 43708) [DRSC15107], the values are z-score, replicate 1 = 0.3. For CG7889 (GeneID 32916) [DRSC20066], the values are z-score, replicate 1 = 0.23. CG5800 (GeneID 32742) [DRSC19962] showed z-score, replicate 1 = 0.28. Knock-down of Rrp47 (GeneID 32558) [DRSC20124] resulted in: z-score, replicate 1 = 0.22.

Depletion of CG12107 (GeneID 35712) [DRSC06102] gave: z-score, replicate 1 = 0.46. With knock-down of CG31908 (GeneID 261613) [DRSC21864], the screen gave z-score, replicate 1 = 0.15.
